# Some of the results follow.
# Key:
# Test in all cases: glycan array binding signal (z-score within array); higher = stronger binding
# Conditions in all cases: glycan notation: IUPAC condensed, linker removed
# [1] = target: Neu5Ac(a2-6)GlcNAc(b1-4)GlcNAc(b1-4)GlcNAc
# How it was run: (§1)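 The binding signal is a Z-score computed within each array. Data were drawn from 3228 arrays in the Consortium for Functional Glycomics database, restricted to those with a known protein sequence. Scores were averaged over arrays of the same protein sequence at different concentrations or buffers, and over linkers, and negative values can be taken as non-binding.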
# [2] = target: Neu5Ac(a2-8)Neu5Ac
# How it was run: as §1
# [3] = target: Neu5Ac(a2-8)Neu5Ac(a2-3)Gal(b1-3)GalNAc(b1-4)[Neu5Ac(a2-3)]Gal(b1-4)Glc
# How it was run: as §1
# [4] = target: Neu5Ac(a2-8)Neu5Ac(a2-3)Gal(b1-3)GalNAc(b1-4)[Neu5Ac(a2-8)Neu5Ac(a2-3)]Gal(b1-4)Glc
# How it was run: as §1
# [5] = target: Neu5Ac(a2-8)Neu5Ac(a2-3)Gal(b1-4)Glc
# How it was run: as §1
# [6] = target: Neu5Ac(a2-8)Neu5Ac(a2-3)Gal(b1-4)GlcNAc
# How it was run: as §1
# [7] = target: Neu5Ac(a2-8)Neu5Ac(a2-3)[Gal(b1-3)GalNAc(b1-4)]Gal(b1-4)Glc
# How it was run: as §1
# [8] = target: Neu5Ac(a2-8)Neu5Ac(a2-3)[GalNAc(b1-4)]Gal(b1-4)Glc
# How it was run: as §1
# [9] = target: Neu5Ac(a2-8)Neu5Ac(a2-8)Neu5Ac
# How it was run: as §1
# [10] = target: Neu5Ac(a2-8)Neu5Ac(a2-8)Neu5Ac(a2-3)Gal(b1-4)Glc
# How it was run: as §1
# [11] = target: Neu5Ac(a2-8)Neu5Ac(a2-8)Neu5Ac(a2-3)[Gal(b1-3)GalNAc(b1-4)]Gal(b1-4)Glc
# How it was run: as §1
# [12] = target: Neu5Ac(a2-8)Neu5Ac(a2-8)Neu5Ac(a2-3)[GalNAc(b1-4)]Gal(b1-4)Glc
# How it was run: as §1
# [13] = target: Neu5Ac(a2-8)Neu5Ac(a2-8)Neu5Ac(a2-8)Neu5Ac(a2-3)[GalNAc(b1-4)]Gal(b1-4)Glc
# How it was run: as §1
# [14] = target: Neu5Ac(a2-8)Neu5Gc(a2-3)Gal(b1-4)GlcNAc
# How it was run: as §1
# [15] = target: Neu5Ac(b2-6)Gal(b1-4)GlcNAc
# How it was run: as §1
# [16] = target: Neu5Ac(b2-6)GalNAc
# How it was run: as §1
# [17] = target: Neu5Ac9Ac(a2-3)Gal(b1-3)GlcNAc
# How it was run: as §1
# [18] = target: Neu5Ac9Ac(a2-3)Gal(b1-4)GlcNAc
# How it was run: as §1
# [19] = target: Neu5Ac9Ac(a2-6)Gal(b1-4)GlcNAc
# How it was run: as §1
# [20] = target: Neu5Gc(a2-3)Gal(b1-3)GlcNAc
# How it was run: as §1
# [21] = target: Neu5Gc(a2-3)Gal(b1-3)[Fuc(a1-4)]GlcNAc
# How it was run: as §1
# [22] = target: Neu5Gc(a2-3)Gal(b1-4)Glc
# How it was run: as §1
# [23] = target: Neu5Gc(a2-3)Gal(b1-4)GlcNAc
# How it was run: as §1
# [24] = target: Neu5Gc(a2-3)Gal(b1-4)GlcNAc(b1-3)Gal(b1-4)GlcNAc(b1-2)Man(a1-3)[Neu5Gc(a2-3)Gal(b1-4)GlcNAc(b1-3)Gal(b1-4)GlcNAc(b1-2)Man(a1-6)]Man(b1-4)GlcNAc(b1-4)GlcNAc
# How it was run: as §1
# [25] = target: Neu5Gc(a2-3)Gal(b1-4)[Fuc(a1-3)]GlcNAc
# How it was run: as §1
# [26] = target: Neu5Gc(a2-6)Gal(b1-4)GlcNAc
# How it was run: as §1
# [27] = target: Neu5Gc(a2-6)GalNAc
# How it was run: as §1
# [28] = target: Neu5Gc(a2-8)Neu5Ac(a2-3)Gal(b1-4)GlcNAc
# How it was run: as §1
# [29] = target: Neu5Gc(a2-8)Neu5Gc(a2-3)Gal(b1-4)GlcNAc
# How it was run: as §1
# [30] = target: Neu5Gc(a2-8)Neu5Gc(a2-3)Gal(b1-4)GlcNAc(b1-3)Gal(b1-4)GlcNAc
# How it was run: as §1
# [31] = target: Neu5Gc(a2-8)Neu5Gc(a2-6)Gal(b1-4)GlcNAc
# How it was run: as §1
# [32] = target: Neu5Gc(b2-6)Gal(b1-4)GlcNAc
# How it was run: as §1
binder,measurement,setting,value
"CcfD (Bacteroides fragilis), Q5L9G4 (protein) MKKQNSIYTLLIALLCFVSSCDYLGVSDQLAGGLQNTEQVFDNVSYTKRWYANVFAGIPDYSGINSVNVGAFKNPWTGMCDELVVGYGNSSKYNNSDRNAANMGFHRYGDCYKYIRQANIFLQKAHPIMTTGTQGDQLLEDELTQMKANVRFMRAFYHYLLFEQYGPIILVKDKIYNATEDQDVPRNTVDEVIEYIDSELTAVASELTQEPIFEDKDYRAWPTKGVALAVRAKLWLYAASPLLNGGYREALSVTNPDGTRLFPDYDAGKWEKALAACKDFIDYAEAGRYELYKEYKDDNGAVIDPDKSVYNLFQKYTHEIIWATANNDWGGMNGDAFDRRIAPRCEKNGLGSTGVTQELVDAFYMKDGFPVSATAYLPQSTLYQEEGYGTYKDQNDNFSKKYTNVTVSNRYLNREPRFYNTVFFNGRQWPVSCNQVLFYNGGNSGVQEGQATLTGYMLFKRFNRSVSLTNPGVASQFRPSIIFRLADFYLMYAEAANEVNPNDARVLKYLNLVRERAGLPDIETLNPAIRGNQELQRAAIQRERQIELATEGQRYFDVRRWMIADKNGEGRQNGYVHGMNVRGESNDKEDFNRIVEASQIVFNRKMYLYPMPDSEMRKTKNLVQNPGW",glycan array binding signal (z-score),[1],-0.443
same,glycan array binding signal (z-score),[2],-0.378
same,glycan array binding signal (z-score),[3],1.8
same,glycan array binding signal (z-score),[4],0.686
same,glycan array binding signal (z-score),[5],-1.1
same,glycan array binding signal (z-score),[6],0.456
same,glycan array binding signal (z-score),[7],-1.07
same,glycan array binding signal (z-score),[8],-1.19
same,glycan array binding signal (z-score),[9],0.082
same,glycan array binding signal (z-score),[10],-1.21
same,glycan array binding signal (z-score),[11],-1.02
same,glycan array binding signal (z-score),[12],-0.936
same,glycan array binding signal (z-score),[13],0.01
same,glycan array binding signal (z-score),[14],-0.476
same,glycan array binding signal (z-score),[15],-0.43
same,glycan array binding signal (z-score),[16],-0.818
same,glycan array binding signal (z-score),[17],-0.542
same,glycan array binding signal (z-score),[18],-0.568
same,glycan array binding signal (z-score),[19],0.227
same,glycan array binding signal (z-score),[20],-0.456
same,glycan array binding signal (z-score),[21],-0.594
same,glycan array binding signal (z-score),[22],-0.404
same,glycan array binding signal (z-score),[23],-0.752
same,glycan array binding signal (z-score),[24],2.17
same,glycan array binding signal (z-score),[25],-0.233
same,glycan array binding signal (z-score),[26],1.34
same,glycan array binding signal (z-score),[27],-0.089
same,glycan array binding signal (z-score),[28],-1.27
same,glycan array binding signal (z-score),[29],-1.19
same,glycan array binding signal (z-score),[30],-0.673
same,glycan array binding signal (z-score),[31],-1.46
same,glycan array binding signal (z-score),[32],-0.043

# An excerpt of these results, with bars between the fields.
binder | measurement | setting | value
CcfD (Bacteroides fragilis), Q5L9G4 (protein) MKKQNSIYTLLIALLCFVSSCDYLGVSDQLAGGLQNTEQVFDNVSYTKRWYANVFAGIPDYSGINSVNVGAFKNPWTGMCDELVVGYGNSSKYNNSDRNAANMGFHRYGDCYKYIRQANIFLQKAHPIMTTGTQGDQLLEDELTQMKANVRFMRAFYHYLLFEQYGPIILVKDKIYNATEDQDVPRNTVDEVIEYIDSELTAVASELTQEPIFEDKDYRAWPTKGVALAVRAKLWLYAASPLLNGGYREALSVTNPDGTRLFPDYDAGKWEKALAACKDFIDYAEAGRYELYKEYKDDNGAVIDPDKSVYNLFQKYTHEIIWATANNDWGGMNGDAFDRRIAPRCEKNGLGSTGVTQELVDAFYMKDGFPVSATAYLPQSTLYQEEGYGTYKDQNDNFSKKYTNVTVSNRYLNREPRFYNTVFFNGRQWPVSCNQVLFYNGGNSGVQEGQATLTGYMLFKRFNRSVSLTNPGVASQFRPSIIFRLADFYLMYAEAANEVNPNDARVLKYLNLVRERAGLPDIETLNPAIRGNQELQRAAIQRERQIELATEGQRYFDVRRWMIADKNGEGRQNGYVHGMNVRGESNDKEDFNRIVEASQIVFNRKMYLYPMPDSEMRKTKNLVQNPGW | glycan array binding signal (z-score) | [7] | -1.07
same | glycan array binding signal (z-score) | [8] | -1.19

# Reference: the supplement of paper PMC8728848
